From PMC9224473 (International Journal of Molecular Sciences, 2022)
Some ranges recur; such a range may be that of the whole group of compounds.

Columns and labels:
[1] = tested on: HepG2 (human liver cancer); assay: MTT cytotoxicity assay; type: cell-based; conditions: HaCaT versus HepG2
Description: (§1) The human cell lines SW480 (primary colon cancer), SW620 (lymph node metastatic colon cancer from the same patient as primary cancer cells), HCT116 (colon carcinoma), HepG2 (liver cancer), and HaCaT (immortalized keratinocytes) were obtained from the American Type Culture Collection (ATCC, Rockville, MD, USA). The SW480, SW620 and HCT116 cells were grown in MEM (ThermoSci, Waltham, MA, USA), HepG2 and HaCaT in DMEM High Glucose (Biowest SAS, Nuaillé, France) supplemented with 10% foetal bovine serum (FBS), HEPES (20 mM), and antibiotics (100 U mL^−1 of Penicillin and 100 μg mL^−1 of Streptomycin). The cells were incubated in a humidified incubator at 37 °C/5% CO2, until 80–90% confluence was reached.
(§2) The cell viability was assessed by using of MTT salt [3-(4,5-dimethylthiazol-2-yl)-2,5-diphenyltetrazolium bromide] converted by mitochondrial dehydrogenase, occurring in living cells. The cells were seeded in 96-well plates at a density of 1 × 10^4 cells per well and allowed to adhere for 24 h at 37 °C in a CO2 humidified incubator. […]. The untreated cells were used as the control.
(§3) After 72 h incubation, the medium was replaced with 200 µL per well of free-serum medium containing 0.5 mg mL^−1 MTT and incubated for 4 h at 37 °C in a CO2 humidified incubator. Subsequently, the medium was removed and dimethyl sulfoxide (DMSO) with isopropanol (1:1) was added to dissolve the formazan crystals. The optical density was measured using UVM 340 reader (ASYS Hitech GmbH, Eugendorf, Austria) at a wavelength of 570 nm. The experiments were repeated three times. The cell viability was calculated as the percent of MTT reduced in treated cells versus control cells (untreated cells). The number of viable cells cultured without tested compounds was assumed as 100%. A decreased relative MTT level indicates decreased cell viability. The IC50 values were estimated using CompuSyn version 1.0.

[2] = tested on: SW480 (human primary colon cancer); assay: MTT cytotoxicity assay; type: cell-based; conditions: HaCaT versus SW480
Description: as §1, §2, §3

[3] = tested on: HCT116 (human colon cancer); assay: MTT cytotoxicity assay; type: cell-based; conditions: HaCaT versus HCT116
Description: as §1, §2, §3

[4] = tested on: SW620 (human metastatic colon cancer); assay: MTT cytotoxicity assay; type: cell-based; conditions: HaCaT versus SW620
Description: as §1
The cell viability was assessed by using of MTT salt [3-(4,5-dimethylthiazol-2-yl)-2,5-diphenyltetrazolium bromide] converted by mitochondrial dehydrogenase, occurring in living cells. […] The untreated cells were used as the control.
as §3, with “Subsequently,” for “After 72 h incubation, the medium was replaced with 200 µL per well of free-serum medium containing 0.5 mg mL^−1 MTT and incubated for 4 h at 37 °C in a CO2 humidified incubator. Subsequently,”

[5] = tested on: cancer cells (HepG2, HCT-116, SW480, SW620) versus HaCaT; assay: MTT assay, selectivity over the cancer cell panel; type: cell-based, human; conditions: range over HepG2, HCT116, SW480, SW620

Compound	SI HepG2 (IC50 for normal cell line/IC50 cancer cell line) [1]	SI SW480 (IC50 for normal cell line/IC50 cancer cell line) [2]	SI HCT116 (IC50 for normal cell line/IC50 cancer cell line) [3]	SI SW620 (IC50 for normal cell line/IC50 cancer cell line) [4]	SI range over cancer cell lines [5]
1-cyclopropyl-6-fluoro-7-{4-[2-(2-isopropyl-5-methylphenoxy)acetyl]piperazin-1-yl}-4-oxo-1,4-dihydroquinoline-3-carboxylic acid [Compound 10]	1.4	0.6	0.4	0.6	–
CC(C)[C@@H]1CC[C@@H](C)C[C@H]1OCC(=O)N1CCN(c2cc3c(cc2F)c(=O)c(C(=O)O)cn3C2CC2)CC1 [Compound 1, 1-cyclopropyl-6-fluoro-7-{4-[2-((1R,2S,5R)-2-isopropyl-5-methylcyclohexyloxy)acetyl]piperazin-1-yl}-4-oxo-1,4-dihydroquinoline-3-carboxylic acid]	0.9	0.5	0.6	0.7	–
CC(C)[C@@H]1CC[C@@H](C)C[C@H]1OC(=O)CN1CCN(c2cc3c(cc2F)c(=O)c(C(=O)O)cn3C2CC2)CC1 [Compound 2, 1-cyclopropyl-6-fluoro-7-{4-[2-((1R,2S,5R)-2-isopropyl-5-methylcyclohexyloxy)-2-oxoethyl]piperazin-1-yl}-4-oxo-1,4-dihydroquinoline-3-carboxylic acid]	1.5	0.7	0.8	0.9	–
CC(C)[C@@H]1CC[C@@H](C)C[C@H]1OC(=O)CCN1CCN(c2cc3c(cc2F)c(=O)c(C(=O)O)cn3C2CC2)CC1 [Compound 3, 1-cyclopropyl-6-fluoro-7-{4-[3-((1R,2S,5R)-2-isopropyl-5-methylcyclohexyloxy)-3-oxopropyl]piperazin-1-yl}-4-oxo-1,4-dihydroquinoline-3-carboxylic acid]	1.2	1.5	1.7	1.2	1.9–3.4
CC(C)[C@@H]1CC[C@@H](C)C[C@H]1OC(=O)CCCN1CCN(c2cc3c(cc2F)c(=O)c(C(=O)O)cn3C2CC2)CC1 [Compound 4, 1-cyclopropyl-6-fluoro-7-{4-[4-((1R,2S,5R)-2-isopropyl-5-methylcyclohexyloxy)-4-oxobutyl]piperazin-1-yl}-4-oxo-1,4-dihydroquinoline-3-carboxylic acid]	0.9	0.8	1.3	0.6	–
CC(C)[C@@H]1CC[C@@H](C)C[C@H]1OC(=O)CCCCN1CCN(c2cc3c(cc2F)c(=O)c(C(=O)O)cn3C2CC2)CC1 [Compound 5, 1-cyclopropyl-6-fluoro-7-{4-[5-((1R,2S,5R)-2-isopropyl-5-methylcyclohexyloxy)-5-oxopentyl)piperazin-1-yl)-4-oxo-1,4-dihydroquinoline-3-carboxylic acid]	0.9	0.7	1.2	1.6	–
CC(C)[C@@H]1CC[C@@H](C)C[C@H]1OC(=O)CCCCCN1CCN(c2cc3c(cc2F)c(=O)c(C(=O)O)cn3C2CC2)CC1 [Compound 6, 1-cyclopropyl-6-fluoro-7-{4-[6-((1R,2S,5R)-2-isopropyl-5-methylcyclohexyloxy)-6-oxohexyl]piperazin-1-yl}-4-oxo-1,4-dihydroquinoline-3-carboxylic acid]	1.9	2.2	3.4	2.6	–
Cc1ccc(C(C)C)c(OCC(=O)N2CCN(c3cc4c(cc3F)c(=O)c(C(=O)O)cn4C3CC3)CC2)c1 [Compound 9, 1-cyclopropyl-6-fluoro-7-{4-[2-(2-isopropyl-5-methylphenoxy)acetyl]piperazin-1-yl}-4-oxo-1,4-dihydroquinoline-3-carboxylic acid]	0.7	0.7	0.4	0.4	–
Cc1ccc(C(C)C)c(OC(=O)CCN2CCN(c3cc4c(cc3F)c(=O)c(C(=O)O)cn4C3CC3)CC2)c1 [Compound 11, 1-cyclopropyl-6-fluoro-7-{4-[3-(2-isopropyl-5-methylphenoxy)-3-oxopropyl]piperazin-1-yl}-4-oxo-1,4-dihydroquinoline-3-carboxylic acid]	1.9	2.9	2.5	2.2	1.9–3.4
Cc1ccc(C(C)C)c(OC(=O)CCCN2CCN(c3cc4c(cc3F)c(=O)c(C(=O)O)cn4C3CC3)CC2)c1 [Compound 12, 1-cyclopropyl-6-fluoro-7-{4-[4-(2-isopropyl-5-methylphenoxy)-4-oxobutyl]piperazin-1-yl}-4-oxo-1,4-dihydroquinoline-3-carboxylic acid]	1.4	1.7	2.0	0.9	–
Cc1ccc(C(C)C)c(OC(=O)CCCCN2CCN(c3cc4c(cc3F)c(=O)c(C(=O)O)cn4C3CC3)CC2)c1 [Compound 13, 1-cyclopropyl-6-fluoro-7-{4-[5-(2-isopropyl-5-methylphenoxy)-5-oxopentyl]piperazin-1-yl}-4-oxo-1,4-dihydroquinoline-3-carboxylic acid]	2.9	2.1	1.9	1.9	–
Cc1ccc(C(C)C)c(OC(=O)CCCCCN2CCN(c3cc4c(cc3F)c(=O)c(C(=O)O)cn4C3CC3)CC2)c1 [Compound 14, 1-cyclopropyl-6-fluoro-7-{4-[6-(2-isopropyl-5-methylphenoxy)-6-oxohexyl]piperazin-1-yl}-4-oxo-1,4-dihydroquinoline-3-carboxylic acid]	0.7	0.9	0.8	0.6	–
